Experimental data taken from PubChem BioAssay AID588499 (NMMLSC, 2011).
In all, about 360,000 compounds went through this assay and about 610 (0.17%) were called active. Inconclusive results, whose numbers are uncertain, are shown with a selection of clear calls. No stated cut-off is given here; in the data, active means inhibition above about 30%; inconclusive means no clear call, values can overlap the other calls; inactive means below that.

Test system: Botulinum neurotoxin type A light chain protease (Clostridium botulinum A str. ATCC 3502)
Assay: blockers of BoNT/A LC substrate cleavage – biochemical, flow cytometry, MLPCN library, primary screen (AID 588499); further: plate controls were buffer without enzyme for full effect and enzyme alone for no effect
Conditions: multiplex microsphere protease substrate cleavage, at 10 µM, hits give high values

SMILES	inhibition
Cc1cccc(OCCCC(=O)NCc2ccco2)c1	inconclusive: -4.5%
COc1ccc(C(=O)Nc2ncc3c(n2)CC(C)CC3=O)cc1 (centres undefined)	inactive: 0.4%
Cc1ccc(N2CC(C(N)=O)CC2=O)cc1 (centres undefined)	inconclusive: 4.1%
COc1cc(/C=C2\SC(=S)N(CC(=O)NC(C)(C)C)C2=O)cc(OC)c1OC	inactive: 16.8%
CN(C)c1ccnc2sc3c(=O)n(Cc4ccccc4)cnc3c12	inconclusive: 4.8%
Cc1cc2ccccc2n1CCNC(=O)C1CC1	active: 69%
Cc1cccc(NC(=O)C2CCCN(C(=O)Nc3ccccc3)C2)c1C (centres undefined)	inconclusive: -2%
Cc1nc(-c2ccccc2)sc1-c1nnc(C2CC2)o1	inconclusive: -14.2%
CCN1C(=O)C(=Cc2ccc(C)s2)C(=O)N(CC)C1=S	active: 69.1%
Cc1ccc(-c2cc3ccccc3nc2N)cc1	inactive: 1.1%
O=C(c1ccccc1)n1ccc(-c2cccs2)n1	inconclusive: 27%
O=C(Nc1ccc(Br)cc1Cl)c1cnccn1	inconclusive: -6.5%
c1ccc(COc2ccc(-c3cc4nc(NCCCn5ccnc5)ccn4n3)cc2)cc1	inactive: -0.4%
Cc1ccc(-n2c(N)c(S(=O)(=O)c3ccccc3)c3nc4ccccc4nc32)cc1	inactive: 0.8%
COn1c(SCc2ccc(Cl)cc2)nc2ccccc2c1=O	inconclusive: -2.2%
COc1ccc(CN(Cc2cccn2C)S(=O)(=O)c2ccccc2)cc1	inconclusive: -0.6%
S=c1[nH]nc2n1CCCN2	inconclusive: -32.7%
CCCNC(=O)CCC(=O)Nc1ncc(-c2ccc(C)cc2)n1C	inconclusive: 0%
O=C(c1ccc(S(=O)(=O)N2CCOCC2)cc1)N1CCN(c2ccccc2)CC1	inconclusive: 4.9%
COc1ccc(C(=O)c2sc(Nc3cccc(OC)c3)c(C(=O)Nc3cccc(C)c3C)c2N)cc1	inconclusive: 0.5%
Cc1ccc(CSc2nnnn2C)cc1	inconclusive: 5.8%
Cn1cnnc1SCC(=O)NC(=O)NC1CCCC1	inconclusive: -0.5%
CC1(CCC#N)N=C(SCCC#N)N(c2ccccc2)C1=O (centres undefined)	inconclusive: -1.2%
CN(C)S(=O)(=O)c1ccc(C(=O)Nc2ccccc2OC(F)(F)C(F)F)cc1	inconclusive: 3.8%

5 entries from above, bar-delimited.
SMILES | inhibition
COc1ccc(CN(Cc2cccn2C)S(=O)(=O)c2ccccc2)cc1 | inconclusive: -0.6%
S=c1[nH]nc2n1CCCN2 | inconclusive: -32.7%
CCCNC(=O)CCC(=O)Nc1ncc(-c2ccc(C)cc2)n1C | inconclusive: 0%
O=C(c1ccc(S(=O)(=O)N2CCOCC2)cc1)N1CCN(c2ccccc2)CC1 | inconclusive: 4.9%
COc1ccc(C(=O)c2sc(Nc3cccc(OC)c3)c(C(=O)Nc3cccc(C)c3C)c2N)cc1 | inconclusive: 0.5%

Remaining list, next part.

SMILES	inhibition
CN(C(=O)CSc1nc2c(c(=O)[nH]1)CCCC2)C1CCCCC1	inconclusive: 3.5%
COc1ccc(N2CCN(CCCNC(=O)C3(S(=O)(=O)c4ccc(Cl)cc4)CC3)CC2)cc1	inconclusive: -7.2%
O=C(OCCCN1CCCC1)C1(c2ccccc2)CCCC1	inconclusive: -0.9%
O=c1ccc(-c2ccc(S(=O)(=O)NCC3CCN(Cc4ccccc4F)CC3)s2)n[nH]1	inconclusive: 6.7%
CCOC(=O)c1[nH]c(C)c(/C(O)=C2\C(=O)C(=O)N(CCCN3CCOCC3)C2c2cccs2)c1C (centres undefined)	inconclusive: 3.8%
CC(C)(C)NC(=O)CN(C(=O)CS(=O)CC(=O)Nc1ccc(F)cc1)c1ccc(F)c(Cl)c1 (centres undefined)	inactive: -1.4%
COc1ccc(S(=O)(=O)Nc2ccc3c(c2)OCO3)cc1OC	inconclusive: 5.1%
C/C(=N\NC(=O)Cc1csc(N2CCOCC2)n1)c1ccccc1	inconclusive: -4.5%
COc1ccc(C(=O)NCC(=O)N/N=C/c2c(C)[nH]c3ccccc23)cc1OC	inconclusive: -45.7%
COc1cc(CNc2ncnc3c2ncn3[C@H]2CN(Cc3ccncc3)C[C@@H](CO)O2)cc(OC)c1OC	inactive: 0.2%
CC(C)n1c(C(F)(F)F)nc2cc(C(=O)N3CCC(O)CC3)ccc21	inconclusive: -31.2%
COc1ccc(O)c(CN2CCN(CCCc3ccccc3)C(CCO)C2)c1 (centres undefined)	inconclusive: 1.3%
Cc1cccnc1NC(=O)CCCNC(=O)c1ccc(Cl)cc1	inconclusive: 0.7%
Cc1oc(S(=O)(=O)N2CCOCC2)cc1C(=O)Nc1ccc(F)cc1	inconclusive: -42.8%
CC(C)NC(=O)CN1C(=O)C(=O)c2ccccc21	inconclusive: -2.2%
OC(CNCCC1C=Nc2ccccc21)Cn1c2ccc(Cl)cc2c2cc(Cl)ccc21 (centres undefined)	inactive: -3%
Cc1ccc(N=Cc2nc(/C=C/c3cccc([N+](=O)[O-])c3)oc2O)cc1	inconclusive: 7.4%
NC1=Nc2ccccc2Oc2ccccc21	inconclusive: -0.3%
CCc1nc2ccc(C(=O)N3CCN(C(=O)c4ccco4)CC3)cn2c1N(CC)Cc1cccc(Br)c1	inactive: -0.1%
COC(=O)/C(C#N)=C/c1ccc(-c2ccc(S(N)(=O)=O)cc2)o1	inactive: 0.9%
CCOP(=O)(CN(CC)C(=O)c1ccccc1Br)OCC	inconclusive: -42%
S=C(NCCc1ccccc1)Nc1c(Cl)cccc1Cl	inconclusive: 17.7%
O=C(COc1cccc(C(F)(F)F)c1)NCCCN1CCCC1=O	inconclusive: 0.8%
Cc1ccc(-c2cc(C(=O)NCc3ccccn3)c3ccccc3n2)cc1C	inactive: 0.2%

SMILES	inhibition
CN1C/C(=C\c2ccc(N3CCOCC3)cc2)C(=O)/C(=C/c2ccc(N3CCOCC3)cc2)C1	active: 33.5%
O=C(C1CCN(S(=O)(=O)c2ccccc2)CC1)N1CCOCC1	inconclusive: -1.4%
CCCCCCC(=O)N(O)C1CC(=O)N(c2ccc(Cl)cc2)C1=O (centres undefined)	inactive: 1%
O=C(O)CCc1ccc(-c2ccc(Br)cc2)o1	inconclusive: -2.7%
C/C(=N\NC(=O)C(C)Oc1ccc([N+](=O)[O-])cc1)c1ccccn1 (centres undefined)	inconclusive: -4.7%
CCOC(=O)C(=CNc1ccc(C(F)(F)F)cc1)C(=O)OCC	inconclusive: -35.4%
Fc1cccc(Cn2ccc(-c3ccc4c(c3)OCO4)n2)c1	inconclusive: -3.4%
CCN(CC)S(=O)(=O)c1cccc(C(=O)NC2CCCCC2)c1	inconclusive: -3%
CCN(CC)C(=O)c1cccc(-c2csc(C(C)(O)c3ccc(F)c(F)c3)n2)c1 (centres undefined)	inactive: 0.3%
Cc1ccc(C)c(NC(=O)c2ccccn2)c1	inconclusive: 0.8%
CCOc1ccccc1NC(=O)c1ccc2ccccc2c1	inconclusive: -2.9%
Cc1cc(C)cc(OCc2nnc(SCC(=O)c3ccccc3)o2)c1	inconclusive: 4.5%
Cc1cccc2sc(NC(=O)CSCc3ccccc3)nc12	inconclusive: 4%
COc1ccc(NC(=O)c2ccccc2C)cc1	inactive: 3.6%
COc1ccc(CN2CCN(c3ccccc3)CC2)c(C)c1C	inconclusive: -3.3%
COc1ccc(-c2nnc3n2N=C(C)CS3)cc1	inconclusive: -1%
CN(C)c1ccc(/C=C/C(=O)c2cccc(Br)c2)cc1	active: 40%
O=C1CCCCC(=O)N(c2ccccc2)c2ccccc21	inactive: 0.9%
Cc1ccccc1-c1nc(CN2CCC(C(=O)NCCCN3CCOCC3)CC2)c(C)o1	inconclusive: -3.3%
CC12CC3(C)CC(C)(C1)CC(C(=O)NC1=NCCS1)(C2)C3	inconclusive: -3.1%
CN(C)c1nc2c(c(N)nn2-c2ccc(Cl)cc2)c(=O)o1	inconclusive: 2.2%
O=[n+]1c2c(n([O-])c3cc(Br)ccc31)CCCC2	inactive: 1.7%
COC(=O)c1c(C)oc(C)c1S(=O)(=O)N1CCCCC1	inconclusive: -4.8%
Cc1ccc(-c2noc(CNc3ccccc3)n2)cc1	inconclusive: 0.9%

3 entries drawn at random from those above:
SMILES	inhibition
Fc1cccc(Cn2ccc(-c3ccc4c(c3)OCO4)n2)c1	inconclusive: -3.4%
Cc1ccc(C)c(NC(=O)c2ccccn2)c1	inconclusive: 0.8%
O=C(C1CCN(S(=O)(=O)c2ccccc2)CC1)N1CCOCC1	inconclusive: -1.4%

Next records.

SMILES	inhibition
O=C(COC(=O)c1n[nH]c2ccccc12)NC(=O)NC12CC3CC(CC(C3)C1)C2	inconclusive: 1.5%
Cc1cc(C)nc(NC(=S)Nc2cccc(F)c2)c1	inconclusive: -0.8%
Cc1ccc(CNC(=O)C2CCC(CNS(=O)(=O)c3cccc4cccnc34)CC2)cc1 (centres undefined)	inactive: -0.1%
O=C(CN1CCCCCC1)Nc1ccc(Br)cn1	inconclusive: -1.7%
CC(=O)Nc1nonc1NC(=O)c1ccc(C(C)(C)C)cc1	inconclusive: 0.1%
COc1ccc(OCC(=O)Nc2ncc3c(n2)CC(C)(C)CC3=O)cc1	inconclusive: -2.3%
CCCn1nnnc1NCc1ccc(N(C)C)cc1	inactive: -0.5%
O=C(O)CC1(CC(=O)NCc2ccc(C(F)(F)F)cc2)CCCCC1	inconclusive: -9.1%
CCc1nc2ccc(C(=O)N(C)C(C)C)cn2c1N(CC)Cc1cccc(Br)c1	inactive: -0.2%
CCNc1nc(NC(C)(C)C)nc(N(C#N)CC)n1	inconclusive: 7.6%
COC(=O)[C@@H](NC(=O)NC1CCCCC1C)C(C)C (some centres undefined)	inconclusive: -29.2%
CC(=O)Nc1cccc(C(=O)OCC(=O)N(c2ccccc2)C2CCS(=O)(=O)C2)c1 (centres undefined)	inconclusive: 5.4%
O=C(NCc1cccs1)c1nn2cccnc2c1Cl	inactive: -0.1%
O=C(NNC(=S)Nc1ccccc1)c1ccco1	inconclusive: -0.3%
CN(C)C(=O)CSc1nnc(CCCCCNC(=O)OC(C)(C)C)o1	inconclusive: -3.9%
O=C(CCCOc1ccc(Cl)cc1)N1CCCCC1	inconclusive: -1.9%
CCNC(=O)/C(C#N)=C/c1c(N2CCCCCC2)nc2ccccn2c1=O	inactive: -1.7%
CNn1cnc2ccsc2c1=O	inconclusive: -4.5%
COc1ccc(N(C)S(=O)(=O)c2ccc(Cl)c(C(=O)NCC(C)(C)N3CCOCC3)c2)cc1	inactive: 1.6%
COc1ccc(C2(CNC(=O)c3ccc(OC)c([N+](=O)[O-])c3)CCOCC2)cc1OC	inconclusive: 1.1%
O=C(O)c1ccccc1NS(=O)(=O)c1ccc(NN=Cc2cccc(Cl)c2)c([N+](=O)[O-])c1	inactive: -0.3%
OC1(C#CCN2CCCC2)c2ccccc2-c2ccccc21	inconclusive: -27.3%
